# In publication PMC11852955:
# By UniProt entry, the sequences of proteins in these tests, tags left out.
# UniProt P01101: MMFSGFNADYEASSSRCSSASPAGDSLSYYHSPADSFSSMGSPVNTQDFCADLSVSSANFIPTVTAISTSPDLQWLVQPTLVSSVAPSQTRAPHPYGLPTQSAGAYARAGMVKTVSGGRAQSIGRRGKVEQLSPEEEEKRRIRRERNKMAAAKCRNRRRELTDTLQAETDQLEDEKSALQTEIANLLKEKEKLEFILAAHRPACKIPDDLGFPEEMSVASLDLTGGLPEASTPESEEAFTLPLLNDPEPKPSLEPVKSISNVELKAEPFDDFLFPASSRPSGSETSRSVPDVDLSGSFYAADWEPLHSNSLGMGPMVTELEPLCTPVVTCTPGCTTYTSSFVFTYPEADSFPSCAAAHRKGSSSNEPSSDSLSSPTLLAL
# UniProt P63216: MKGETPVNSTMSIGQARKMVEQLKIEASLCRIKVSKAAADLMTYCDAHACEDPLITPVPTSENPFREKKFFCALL
# No constants are given. Whether binding was seen depends on the method and setting. In cells and extracts the contact can be indirect. Some entries that bind do so weakly or less than the wild type.
# T1: JunD (mouse (endogenous in DRG)) (UniProt P15066)
# T1 sequence: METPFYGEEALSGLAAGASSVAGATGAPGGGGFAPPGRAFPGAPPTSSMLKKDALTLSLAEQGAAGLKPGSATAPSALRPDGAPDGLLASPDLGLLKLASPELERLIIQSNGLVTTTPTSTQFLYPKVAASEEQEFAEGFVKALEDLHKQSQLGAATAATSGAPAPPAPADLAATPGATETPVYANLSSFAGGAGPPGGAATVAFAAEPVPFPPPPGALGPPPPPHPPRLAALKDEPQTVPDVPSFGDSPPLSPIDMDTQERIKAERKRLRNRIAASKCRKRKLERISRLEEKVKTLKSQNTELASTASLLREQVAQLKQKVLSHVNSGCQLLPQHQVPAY
# T2: FosB (mouse (endogenous in DRG)) (UniProt P13346)
# T2 sequence: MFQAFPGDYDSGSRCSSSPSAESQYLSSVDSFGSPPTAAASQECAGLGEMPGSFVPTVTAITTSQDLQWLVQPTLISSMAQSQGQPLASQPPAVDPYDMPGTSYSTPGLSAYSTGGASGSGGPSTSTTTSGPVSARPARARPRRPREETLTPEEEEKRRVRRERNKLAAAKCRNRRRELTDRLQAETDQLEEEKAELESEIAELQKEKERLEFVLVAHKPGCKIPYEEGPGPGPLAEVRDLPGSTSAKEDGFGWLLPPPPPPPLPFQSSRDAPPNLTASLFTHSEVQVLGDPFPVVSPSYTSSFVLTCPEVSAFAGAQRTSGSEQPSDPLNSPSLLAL
# Legend:
# Assay in all cases: co-IP; lysates of mouse DRG (control, STZ diabetic, Ascl1/Lhx6-treated STZ groups); immunoprecipitation buffer with Tris-HCl, NaCl, MgCl2, EDTA, Triton X-100, glycerol; precleared with protein A/G PLUS-agarose; immunoprecipitated with rabbit anti-c-Fos, anti-JunD, anti-FosB, anti-FoxK1, anti-GNG3; washed with 50 mM Tris-HCl pH 7.4, 150 mM NaCl, 10 mM EDTA, 1% NP-40
# [1] = biological target: T1, JunD (mouse (endogenous in DRG))
# [2] = biological target: T2, FosB (mouse (endogenous in DRG))
# [3] = biological target: c-Fos (mouse (endogenous in DRG)) (UniProt P01101)
binding [1],binding [2],binding [3],Molecule
binds,–,–,c-Fos (from UniProt P01101 1-380)
no binding,no binding,no binding,guanine nucleotide-binding protein G[I]/G[S]/G[O] subunit gamma-3 (from UniProt P63216 1-75)
binds,–,–,"FosB (protein, UniProt P13346 1-338) MFQAFPGDYDSGSRCSSSPSAESQYLSSVDSFGSPPTAAASQECAGLGEMPGSFVPTVTAITTSQDLQWLVQPTLISSMAQSQGQPLASQPPAVDPYDMPGTSYSTPGLSAYSTGGASGSGGPSTSTTTSGPVSARPARARPRRPREETLTPEEEEKRRVRRERNKLAAAKCRNRRRELTDRLQAETDQLEEEKAELESEIAELQKEKERLEFVLVAHKPGCKIPYEEGPGPGPLAEVRDLPGSTSAKEDGFGWLLPPPPPPPLPFQSSRDAPPNLTASLFTHSEVQVLGDPFPVVSPSYTSSFVLTCPEVSAFAGAQRTSGSEQPSDPLNSPSLLAL"
